# Assay results published in PMC7819943, “Rice protein-binding microarrays: a tool to detect cis-acting elements near promoter regions in rice”.
# Protein sequences, listed by entry. Tags and fused reporters are not part of them.
# UniProt Q0JBA9, entry or part of it: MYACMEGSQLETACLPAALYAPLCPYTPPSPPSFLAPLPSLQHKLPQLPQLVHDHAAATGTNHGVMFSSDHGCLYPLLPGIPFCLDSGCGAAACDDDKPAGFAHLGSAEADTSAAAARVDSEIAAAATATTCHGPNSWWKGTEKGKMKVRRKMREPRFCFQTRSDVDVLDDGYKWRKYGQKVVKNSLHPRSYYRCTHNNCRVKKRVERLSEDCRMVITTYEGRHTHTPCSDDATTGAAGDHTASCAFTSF
# This is one part of the list.
# Molecular target: OsWRKY34 (Oryza sativa, UniProt Q0JBA9 1-250)
# Experiment: protein-binding microarray (RPBM); PBS, 2% BSA, 51.3 ng/ul salmon testes DNA, 50 uM zinc acetate, 200 nM TF, 25 C, 1 h; high values mean tight binding
# Details: protein: recombinant; tags: N-terminal polyhistidine and DsRed monomer fusion (pET32a); label: CyDye5-dUTP incorporated in the synthesized complementary strand; 3' TTTTT single-stranded linker to array surface; dsDNA, one strand shown
# Summary of the method: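 The binding signal is fluorescence intensity per feature, in arbitrary units, read on an Axon 4000B scanner. Polyhistidine- and DsRed-tagged transcription factors (N-terminal fusions) from E. coli BL21-CodonPlus were purified on Ni–NTA and applied at 200 nM for 1 h at 25 °C to a double-stranded, BSA-blocked custom Agilent array in buffer with 50 µM zinc acetate.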
row,Sequence,binding signal
1,GTTCTTGCTTTACACTGTTTGACCACTCGTCTTGTTCAAACGGAGTCACCTAGTGCAG,10300 fluorescence intensity (a.u.)
2,ACTTCTACATAATTACTGTCTTTGTTGAGGGGTAAACTACCGGAGTCACCTAGTGCAG,10900 fluorescence intensity (a.u.)
3,CCGCTCTTGATTAGGTCGATGGGGTAATTTCTCTGTGTTTCGGAGTCACCTAGTGCAG,12000 fluorescence intensity (a.u.)
4,TCTACAAATAAATTTCATAATCTACTCGGTTTAGTTGTTTCGGAGTCACCTAGTGCAG,8150 fluorescence intensity (a.u.)
5,GAACAGGTCTATGCTGTTTGCCTTAGCTGCTGTGTCAGATCGGAGTCACCTAGTGCAG,8250 fluorescence intensity (a.u.)
6,GTGACTCATATCACCCCACAATTCACATATTCTTAATCCCCGGAGTCACCTAGTGCAG,11900 fluorescence intensity (a.u.)
7,TATATCTAACCCTTTTCCTTCAATTTCAATGCCTTTTAAACGGAGTCACCTAGTGCAG,8210 fluorescence intensity (a.u.)
8,ACCTCGACCACGTACGCCGCCGTCCCTTGCAGCTCCGCCGCGGAGTCACCTAGTGCAG,8730 fluorescence intensity (a.u.)
9,ATATATATATATATATATATATATATATCATCGAAAATGTCGGAGTCACCTAGTGCAG,8830 fluorescence intensity (a.u.)
10,TTGTCCAATCGTGGAGATGTCTCGTTTCTAGTCGCCAAAACGGAGTCACCTAGTGCAG,8810 fluorescence intensity (a.u.)
11,GCAGTTGCGGCATTCCGACGAACACCTCGCGCGCGCGCGCCGGAGTCACCTAGTGCAG,8220 fluorescence intensity (a.u.)
12,ACGAGATCATCATCTGTAGTTCTTTTGTTGTGCTTTTCATCGGAGTCACCTAGTGCAG,10100 fluorescence intensity (a.u.)
13,CTCCTACCTCTACCGCTGCTACTCACCACACCAGCCGCCGCGGAGTCACCTAGTGCAG,8650 fluorescence intensity (a.u.)
14,AACTGTATTCTTTGACCTGAACTCTTGCACTCCTATCTCGCGGAGTCACCTAGTGCAG,12400 fluorescence intensity (a.u.)
15,CGCCGCCGCCGCCGCCGATCCCCATCCATCCCGCGAGCAACGGAGTCACCTAGTGCAG,8120 fluorescence intensity (a.u.)
16,CTATCAATGCGAGGGTCCCACTATTTTTTTATTATTTTGTCGGAGTCACCTAGTGCAG,8110 fluorescence intensity (a.u.)
17,GAACTCATTTTGTTGTTTACCTCATTTCTATTCAGGAAACCGGAGTCACCTAGTGCAG,8970 fluorescence intensity (a.u.)
18,AGTTATTTTTTATATTTAATACTTCATACATGTGTCTATACGGAGTCACCTAGTGCAG,10100 fluorescence intensity (a.u.)
19,TACTCTAAACCAATTTACCGTACCAATCTCTGAAAAGGATCGGAGTCACCTAGTGCAG,8270 fluorescence intensity (a.u.)
20,CGACCCCGACCCCGCCGCCGACTACGCCTGGTCCACGCCCCGGAGTCACCTAGTGCAG,8240 fluorescence intensity (a.u.)
21,TCCGGGTCTGTTTTCGTCGGGTCTCGGGTTTCCTTGCTCGCGGAGTCACCTAGTGCAG,8100 fluorescence intensity (a.u.)

# Quoted from the listing:
# Under binding signal, CTATCAATGCGAGGGTCCCACTATTTTTTTATTATTTTGTCGGAGTCACCTAGTGCAG shows 8110 fluorescence intensity (a.u.)
# Under binding signal, TACTCTAAACCAATTTACCGTACCAATCTCTGAAAAGGATCGGAGTCACCTAGTGCAG shows 8270 fluorescence intensity (a.u.)
# Under binding signal, AACTGTATTCTTTGACCTGAACTCTTGCACTCCTATCTCGCGGAGTCACCTAGTGCAG shows 12400 fluorescence intensity (a.u.)

# Remaining list, next part.

row,Sequence,binding signal
1,GTGCAATTGGTTTTTTCGTCTATATTTAATGCTCTATATACGGAGTCACCTAGTGCAG,8030 fluorescence intensity (a.u.)
2,GTGACCATCGGCTAGATTCCATTGACTTTGTTACATCATTCGGAGTCACCTAGTGCAG,9770 fluorescence intensity (a.u.)
3,ATTTACATGGTTTTCAGTTTCTGCATAGTTACATCTTCTACGGAGTCACCTAGTGCAG,8540 fluorescence intensity (a.u.)
4,TCCCTCCACACACCTCGTACCTCGATCTCGAAGCTTAATTCGGAGTCACCTAGTGCAG,8930 fluorescence intensity (a.u.)
5,TCTTTGTTCTGGATGCAGCTATCCCTTGGGCTTGAGTGCTCGGAGTCACCTAGTGCAG,8280 fluorescence intensity (a.u.)
6,CATTTCCATTGCTGCATAACAGGTGTGTGCATGGGTATATCGGAGTCACCTAGTGCAG,8440 fluorescence intensity (a.u.)
7,CTGGGTGTGGGTGATGAGTTGGGGTACGTCCCAGGGTCTCCGGAGTCACCTAGTGCAG,8880 fluorescence intensity (a.u.)
8,TTTGCCGTTGAAGATTATACAGTACATTCTTTTTGCAACACGGAGTCACCTAGTGCAG,8300 fluorescence intensity (a.u.)
9,CAAGCCATCCATTCCATGCATCCATCCATCCATGCATTTGCGGAGTCACCTAGTGCAG,12700 fluorescence intensity (a.u.)
10,GGGGTAGGGTTTGCATGCTTGAGTTCATAGGGTACGTCGCCGGAGTCACCTAGTGCAG,13500 fluorescence intensity (a.u.)
11,TGATTCTACTTATTATTTATTTAAACATGCTACTATTCATCGGAGTCACCTAGTGCAG,9600 fluorescence intensity (a.u.)
12,AAAATCCAATCAAGCCACCCAATTCCATGCTTTTCACTTTCGGAGTCACCTAGTGCAG,8560 fluorescence intensity (a.u.)
13,TTCACATAATCGTGCACGTTCCAGATCGGGCTATTGCATTCGGAGTCACCTAGTGCAG,9060 fluorescence intensity (a.u.)
14,TTTTAGGTGTATGAACAATTTTTTTTACCCCTTCTCATTTCGGAGTCACCTAGTGCAG,8120 fluorescence intensity (a.u.)
15,TCTACTTCCCTCAATCACTCGTTTCTTTTTTATTATTATTCGGAGTCACCTAGTGCAG,10700 fluorescence intensity (a.u.)
16,CATGGAATGTTTTCTACTCGTAGCTTGGAATGGTCAAACCCGGAGTCACCTAGTGCAG,8710 fluorescence intensity (a.u.)
17,GGCGGCAGGGTCTATTTTTGTAATTTTTTGTGCCGATAGACGGAGTCACCTAGTGCAG,9630 fluorescence intensity (a.u.)
18,ACCACTTAATGCGATCTTATCCTCTCGCTGTCTCGCACTCCGGAGTCACCTAGTGCAG,11900 fluorescence intensity (a.u.)
19,TGGTTGGTTTGTTGGGTTCTTTTCCTTTTTTTTGTTTCTTCGGAGTCACCTAGTGCAG,26700 fluorescence intensity (a.u.)
20,CAAACCTTCTGTTCAGATCATCTATTTATTATCTTCAGCACGGAGTCACCTAGTGCAG,8670 fluorescence intensity (a.u.)
21,GCATATCCAATCATCACCTCTCATATCATTTGTACAATATCGGAGTCACCTAGTGCAG,10200 fluorescence intensity (a.u.)
